Source: paper PMC9273934 (2022)
These are yes or no findings as the source states them, for the method shown. For some of these results: Binding seen in cells or lysates may run through a third protein. Some entries that bind do so weakly or less than the wild type.

Protein sequences, listed by entry. Tags and fused reporters are not part of them. Residues count along the entry.
Flag-E1 from Con1 (GT1b) (Q9WMX2, residues 192-383): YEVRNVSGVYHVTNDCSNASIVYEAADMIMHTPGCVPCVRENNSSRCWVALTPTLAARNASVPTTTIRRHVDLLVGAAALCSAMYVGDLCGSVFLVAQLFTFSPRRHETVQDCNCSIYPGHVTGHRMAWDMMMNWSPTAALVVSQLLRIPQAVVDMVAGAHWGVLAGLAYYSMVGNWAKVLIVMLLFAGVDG
Fc-E2 from Con1 (GT1b) (hepatitis C virus, strain Con1 (GT1b)) (Q9WMX2, residues 384-746): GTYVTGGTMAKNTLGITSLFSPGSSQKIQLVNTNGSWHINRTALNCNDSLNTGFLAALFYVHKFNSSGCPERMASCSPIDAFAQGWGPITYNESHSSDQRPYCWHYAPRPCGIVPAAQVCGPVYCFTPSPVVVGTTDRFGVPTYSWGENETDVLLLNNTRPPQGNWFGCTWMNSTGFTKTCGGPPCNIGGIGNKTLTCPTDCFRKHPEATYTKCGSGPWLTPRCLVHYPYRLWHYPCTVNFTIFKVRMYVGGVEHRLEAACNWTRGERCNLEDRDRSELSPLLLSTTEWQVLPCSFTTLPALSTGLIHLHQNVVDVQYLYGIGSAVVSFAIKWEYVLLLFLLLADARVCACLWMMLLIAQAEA
Flag-E1 from H77 (GT1a) (P27958, residues 192-383): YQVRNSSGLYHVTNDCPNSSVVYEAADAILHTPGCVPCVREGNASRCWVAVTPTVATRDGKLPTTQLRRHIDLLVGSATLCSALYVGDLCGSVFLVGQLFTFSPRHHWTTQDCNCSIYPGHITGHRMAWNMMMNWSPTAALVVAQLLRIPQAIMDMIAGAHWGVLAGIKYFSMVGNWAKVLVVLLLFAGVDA
Fc-E2 from H77 (GT1a) (hepatitis C virus, strain H77 (GT1a)) (P27958, residues 384-746): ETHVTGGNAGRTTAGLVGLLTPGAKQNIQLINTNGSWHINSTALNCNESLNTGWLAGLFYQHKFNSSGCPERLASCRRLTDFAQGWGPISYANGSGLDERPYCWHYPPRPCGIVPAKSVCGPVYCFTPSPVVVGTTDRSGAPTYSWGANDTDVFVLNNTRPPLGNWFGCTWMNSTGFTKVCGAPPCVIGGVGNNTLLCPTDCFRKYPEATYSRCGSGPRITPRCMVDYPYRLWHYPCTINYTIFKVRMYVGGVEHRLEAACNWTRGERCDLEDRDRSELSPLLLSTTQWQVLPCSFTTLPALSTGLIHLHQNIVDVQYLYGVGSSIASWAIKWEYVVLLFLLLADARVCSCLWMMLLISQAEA

What was measured:
[1] = molecular target: T1, scavenger receptor class B type I on CHO cells (human) (UniProt Q8WTV0); test: flow cytometry on cells; 10 ug Fc-E1E2 with CHO cells stably expressing CD81 or SR-BI (or parental CHO), 2 h at room temperature; PE anti-human IgG Fc; only the binder purified
T1 sequence: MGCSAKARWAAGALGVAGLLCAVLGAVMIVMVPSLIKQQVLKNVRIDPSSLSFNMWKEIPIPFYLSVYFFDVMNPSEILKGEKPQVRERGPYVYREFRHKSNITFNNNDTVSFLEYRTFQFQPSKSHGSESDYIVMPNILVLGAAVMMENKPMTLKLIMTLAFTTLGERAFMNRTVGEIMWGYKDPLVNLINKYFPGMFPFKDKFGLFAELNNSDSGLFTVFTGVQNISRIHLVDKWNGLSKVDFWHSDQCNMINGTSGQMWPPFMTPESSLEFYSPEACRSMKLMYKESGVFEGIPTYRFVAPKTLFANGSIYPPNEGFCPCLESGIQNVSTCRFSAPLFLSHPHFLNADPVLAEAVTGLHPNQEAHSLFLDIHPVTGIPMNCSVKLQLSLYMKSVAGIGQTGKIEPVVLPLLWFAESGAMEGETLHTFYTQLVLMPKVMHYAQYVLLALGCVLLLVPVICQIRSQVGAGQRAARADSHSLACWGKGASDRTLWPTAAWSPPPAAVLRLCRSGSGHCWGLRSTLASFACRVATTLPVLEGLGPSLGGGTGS

[2] = molecular target: T2, human CD81 on CHO cells (human) (UniProt P60033); test: as above
T2 sequence: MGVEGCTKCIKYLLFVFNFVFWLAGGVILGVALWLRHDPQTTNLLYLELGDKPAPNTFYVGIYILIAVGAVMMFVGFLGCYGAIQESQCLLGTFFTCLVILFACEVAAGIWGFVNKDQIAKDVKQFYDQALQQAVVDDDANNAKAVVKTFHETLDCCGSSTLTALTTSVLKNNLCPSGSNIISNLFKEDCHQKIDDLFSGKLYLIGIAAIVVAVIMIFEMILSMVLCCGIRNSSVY

[3] = molecular target: Fc-E2 from Con1 (GT1b) (hepatitis C virus, strain Con1 (GT1b)) (UniProt Q9WMX2); test: pull-down + native gel or EMSA; one-step protein A Sepharose purification of Fc-E2 from 0.5% Triton X-100 membrane extracts of FreeStyle 293-F cells; Flag-E1 found by Coomassie and Western blot under reducing and non-reducing conditions and by native Western blotting
[4] = molecular target: Fc-E2 from H77 (GT1a) (hepatitis C virus, strain H77 (GT1a)) (UniProt P27958); test: as above

Fc-E1E2 from Con1 (GT1b), recombinant full-length E1E2 heterodimer (from UniProt Q9WMX2 192-383; Q9WMX2 384-746) (complex)
binding [1]: binds | binding [2]: binds

Flag-E1 from Con1 (GT1b) (from UniProt Q9WMX2 192-383)
binding [3]: binds

Flag-E1 from H77 (GT1a) (from UniProt P27958 192-383)
binding [4]: binds
